The source of these data is patent publication US20140044738A1 (AstraZeneca / MedImmune, published 2014).

Amino acid sequences for entries named in this document (tags omitted). Residues count along the entry.
UniProt Q15116, residues 25-167: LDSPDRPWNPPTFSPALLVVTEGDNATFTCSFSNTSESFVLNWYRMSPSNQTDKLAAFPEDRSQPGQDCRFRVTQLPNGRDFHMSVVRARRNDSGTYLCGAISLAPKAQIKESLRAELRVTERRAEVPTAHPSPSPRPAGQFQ

No constants are given. Whether binding was seen depends on the method and setting. Some results given as binding are weak or reduced against the parent protein; the word gives no strength. Tags and fused reporters may be left off the sequences shown.

The assay has as its target human PD-1 (form in the assay not stated) (human) (UniProt Q15116). Nature of the assay: flow cytometry histogram, axis PE-A: SA; cells not named on the sheet or in the text. For orientation: A flow cytometer gives signals particle by particle.

B1: 1H3 Construct (chimeric murine anti-human PD-1 Fab regions of antibody 1H3 and a human IgG1 Fc region) (antibody, V domains shown)
VH: EVQLVESGGGLVKPGGSLKLSCAASGFTFSDYGMHWVRQAPEKGLEWVAYISSGSYTIYYTDTVKGRFTISRDNAKNTLFLQMTSLRSEDTAMYYCARRGYGSFYEYYFDYWGQGTTLTVSS
VL: QIVLTQSPALMSASPGEKVTMTCSASSSVSYMYWYQQKPRSSPKPWIYLTSNLASGVPARFSGSGSGTSYSLTISSMEAEDAATYYCQQWSSNPFTFGSGTKLEIK
notes: also called 1H3 anti-human PD-1 chimeric antibody; chimeric 1H3
Consider B1, for which the binding entry is listed as “binds”.
